No constants are given. Whether binding was seen depends on the method and setting. In cells and extracts the contact can be indirect. Some entries that bind do so weakly or less than the wild type.
Legend:
His-NANOG (human) = His-NANOG (human) (UniProt Q9H9S0); assay: co-IP; SW1990 cells treated with 20 uM MG132 for 8 h; lysates incubated with indicated antibodies at 4 °C overnight, then Protein A + G Agarose for 3 h at 4 °C; western blot
NANOG (human) = NANOG (human) (UniProt Q9H9S0); assay: as above

Sequences of proteins named here, by UniProt entry; tags and fusion partners are left off. A change or cut given only in a name is not applied to a line headed by its entry.
UniProt Q9H9S0: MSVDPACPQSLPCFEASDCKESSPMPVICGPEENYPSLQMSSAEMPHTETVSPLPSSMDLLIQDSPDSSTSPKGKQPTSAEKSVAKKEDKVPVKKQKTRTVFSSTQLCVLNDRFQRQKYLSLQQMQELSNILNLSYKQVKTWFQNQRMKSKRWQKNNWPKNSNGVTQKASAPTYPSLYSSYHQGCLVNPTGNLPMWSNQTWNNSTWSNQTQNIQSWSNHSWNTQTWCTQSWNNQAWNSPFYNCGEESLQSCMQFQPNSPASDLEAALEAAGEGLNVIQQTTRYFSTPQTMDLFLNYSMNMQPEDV
UniProt O43791: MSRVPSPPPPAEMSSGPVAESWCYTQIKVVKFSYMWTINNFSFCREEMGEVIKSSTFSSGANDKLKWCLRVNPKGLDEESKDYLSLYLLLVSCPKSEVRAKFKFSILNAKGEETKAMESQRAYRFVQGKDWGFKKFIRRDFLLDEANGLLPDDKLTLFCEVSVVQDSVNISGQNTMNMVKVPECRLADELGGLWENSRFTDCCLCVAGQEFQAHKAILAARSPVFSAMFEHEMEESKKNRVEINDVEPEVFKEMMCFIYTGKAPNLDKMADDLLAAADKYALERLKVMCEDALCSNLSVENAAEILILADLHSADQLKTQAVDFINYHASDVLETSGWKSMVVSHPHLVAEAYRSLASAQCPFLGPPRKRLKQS

Substance: Flag-SPOP-Q360* (from UniProt O43791 1-359) (domain or fragment)
- binding (His-NANOG (human)): binds

Substance: Speckle-type POZ domain protein (SPOP) (from UniProt O43791 1-374)
- binding (NANOG (human)): binds
